Measurements from PMC5915530 (Scientific Reports, 2018).

Test: general procedure: Fmoc solid-phase peptide synthesis; H-Rink amide-ChemMatrix (PCAS BioMatrix Inc.); Cl-HOBt/DIPCDI
Conditions: whole synthesis, 220 nm

PEPTIDE1{[dP].[dW].[dV].[dP].[dS].[dW].[dM].[dP].[dP].[dR].[dH].[dT].[am]}$$$$V2.0
final HPLC purity: >99%

PEPTIDE1{[dH].[dR].[dP].[dY].[dI].[dA].[dH].[am]}$$$$V2.0
final HPLC purity: >99%

HELM strings list residues between dots; [ac] is acetyl, [am] amide, other brackets name non-standard units.
